Results from the supplement of paper PMC12819154, “High-throughput peptide-centric local stability assay extends protein–ligand identification to membrane proteins, tissues and bacteria” (Nature Structural & Molecular Biology, 2025).
This is one part of the list. Most values lie at the level of the controls, where differences are scatter.

Sequences of proteins named here, by UniProt entry; tags and fusion partners are left off. A change or cut given only in a name is not applied to a line headed by its entry.
UniProt Q4VGL6: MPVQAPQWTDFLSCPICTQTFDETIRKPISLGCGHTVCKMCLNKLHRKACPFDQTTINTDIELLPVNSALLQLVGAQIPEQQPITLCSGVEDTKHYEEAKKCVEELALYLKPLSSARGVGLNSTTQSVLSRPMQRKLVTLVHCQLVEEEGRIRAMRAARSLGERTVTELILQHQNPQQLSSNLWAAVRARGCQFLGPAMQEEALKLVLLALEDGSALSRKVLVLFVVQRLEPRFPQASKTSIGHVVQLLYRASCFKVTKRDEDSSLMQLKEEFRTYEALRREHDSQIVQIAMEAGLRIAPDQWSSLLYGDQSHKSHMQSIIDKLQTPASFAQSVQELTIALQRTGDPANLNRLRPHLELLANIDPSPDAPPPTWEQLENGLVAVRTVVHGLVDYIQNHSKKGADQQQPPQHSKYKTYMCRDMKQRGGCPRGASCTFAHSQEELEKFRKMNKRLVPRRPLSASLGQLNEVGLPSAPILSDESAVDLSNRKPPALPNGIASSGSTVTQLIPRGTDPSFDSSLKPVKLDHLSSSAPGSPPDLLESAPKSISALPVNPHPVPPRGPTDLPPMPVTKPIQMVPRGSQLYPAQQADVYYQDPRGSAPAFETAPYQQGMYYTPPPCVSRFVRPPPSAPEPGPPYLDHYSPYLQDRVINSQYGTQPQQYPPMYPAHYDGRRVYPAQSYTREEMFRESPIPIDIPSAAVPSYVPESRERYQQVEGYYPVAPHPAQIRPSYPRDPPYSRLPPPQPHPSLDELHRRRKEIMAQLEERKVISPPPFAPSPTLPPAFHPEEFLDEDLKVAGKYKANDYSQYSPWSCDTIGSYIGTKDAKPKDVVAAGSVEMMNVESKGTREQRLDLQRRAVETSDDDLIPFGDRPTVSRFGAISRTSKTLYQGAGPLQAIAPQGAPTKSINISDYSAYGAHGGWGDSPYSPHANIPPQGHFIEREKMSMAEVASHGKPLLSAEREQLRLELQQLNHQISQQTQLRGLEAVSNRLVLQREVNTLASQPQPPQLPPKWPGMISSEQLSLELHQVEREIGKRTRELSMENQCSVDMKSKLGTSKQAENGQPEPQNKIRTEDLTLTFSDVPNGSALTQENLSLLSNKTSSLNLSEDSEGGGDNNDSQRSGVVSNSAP
UniProt Q3UV70: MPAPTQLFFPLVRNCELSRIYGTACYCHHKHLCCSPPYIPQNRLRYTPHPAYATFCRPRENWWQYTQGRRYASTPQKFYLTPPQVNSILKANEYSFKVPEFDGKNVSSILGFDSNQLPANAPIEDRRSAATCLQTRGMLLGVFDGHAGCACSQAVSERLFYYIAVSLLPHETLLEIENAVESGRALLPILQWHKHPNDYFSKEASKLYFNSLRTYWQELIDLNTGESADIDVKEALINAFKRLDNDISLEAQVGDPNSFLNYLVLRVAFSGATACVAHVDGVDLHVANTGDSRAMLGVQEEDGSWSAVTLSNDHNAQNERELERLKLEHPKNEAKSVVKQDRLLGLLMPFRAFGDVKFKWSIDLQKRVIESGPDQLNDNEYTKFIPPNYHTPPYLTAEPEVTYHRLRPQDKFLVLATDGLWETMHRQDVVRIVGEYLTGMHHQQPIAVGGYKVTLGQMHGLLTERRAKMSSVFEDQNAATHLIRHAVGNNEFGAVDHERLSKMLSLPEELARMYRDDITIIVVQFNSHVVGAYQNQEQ
UniProt Q3UQA7, whole entry: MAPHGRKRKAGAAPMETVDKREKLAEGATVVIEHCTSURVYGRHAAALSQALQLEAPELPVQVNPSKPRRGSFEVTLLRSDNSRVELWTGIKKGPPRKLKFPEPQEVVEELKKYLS
UniProt Q3UHC7: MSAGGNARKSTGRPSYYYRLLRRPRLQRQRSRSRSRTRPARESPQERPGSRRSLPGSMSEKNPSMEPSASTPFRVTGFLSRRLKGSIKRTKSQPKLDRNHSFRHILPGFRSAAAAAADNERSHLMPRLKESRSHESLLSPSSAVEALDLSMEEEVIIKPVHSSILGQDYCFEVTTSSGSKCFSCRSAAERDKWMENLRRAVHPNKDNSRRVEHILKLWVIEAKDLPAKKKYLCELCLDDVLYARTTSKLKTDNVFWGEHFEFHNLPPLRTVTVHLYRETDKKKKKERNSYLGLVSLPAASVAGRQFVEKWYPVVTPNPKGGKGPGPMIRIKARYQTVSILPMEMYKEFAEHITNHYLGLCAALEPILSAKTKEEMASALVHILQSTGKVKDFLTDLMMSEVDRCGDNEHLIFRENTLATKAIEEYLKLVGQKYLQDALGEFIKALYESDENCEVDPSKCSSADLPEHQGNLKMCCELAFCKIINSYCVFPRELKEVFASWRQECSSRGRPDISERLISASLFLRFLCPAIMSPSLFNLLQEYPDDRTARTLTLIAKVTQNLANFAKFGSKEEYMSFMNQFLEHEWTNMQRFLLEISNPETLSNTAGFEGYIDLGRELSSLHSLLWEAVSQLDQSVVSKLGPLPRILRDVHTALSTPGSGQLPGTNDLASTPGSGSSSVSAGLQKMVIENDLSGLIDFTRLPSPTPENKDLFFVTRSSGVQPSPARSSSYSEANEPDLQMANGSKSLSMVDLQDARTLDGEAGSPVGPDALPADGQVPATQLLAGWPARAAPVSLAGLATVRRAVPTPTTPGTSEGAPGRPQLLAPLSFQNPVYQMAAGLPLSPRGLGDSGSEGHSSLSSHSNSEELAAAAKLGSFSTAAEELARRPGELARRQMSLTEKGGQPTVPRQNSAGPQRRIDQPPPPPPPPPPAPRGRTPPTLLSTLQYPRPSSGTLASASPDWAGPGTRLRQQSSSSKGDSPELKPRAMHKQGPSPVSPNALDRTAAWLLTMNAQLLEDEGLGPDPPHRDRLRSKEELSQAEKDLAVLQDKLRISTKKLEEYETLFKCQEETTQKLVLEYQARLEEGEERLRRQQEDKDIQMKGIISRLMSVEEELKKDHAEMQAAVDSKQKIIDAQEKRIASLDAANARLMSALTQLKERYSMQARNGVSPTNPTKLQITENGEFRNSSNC
UniProt Q3URE1: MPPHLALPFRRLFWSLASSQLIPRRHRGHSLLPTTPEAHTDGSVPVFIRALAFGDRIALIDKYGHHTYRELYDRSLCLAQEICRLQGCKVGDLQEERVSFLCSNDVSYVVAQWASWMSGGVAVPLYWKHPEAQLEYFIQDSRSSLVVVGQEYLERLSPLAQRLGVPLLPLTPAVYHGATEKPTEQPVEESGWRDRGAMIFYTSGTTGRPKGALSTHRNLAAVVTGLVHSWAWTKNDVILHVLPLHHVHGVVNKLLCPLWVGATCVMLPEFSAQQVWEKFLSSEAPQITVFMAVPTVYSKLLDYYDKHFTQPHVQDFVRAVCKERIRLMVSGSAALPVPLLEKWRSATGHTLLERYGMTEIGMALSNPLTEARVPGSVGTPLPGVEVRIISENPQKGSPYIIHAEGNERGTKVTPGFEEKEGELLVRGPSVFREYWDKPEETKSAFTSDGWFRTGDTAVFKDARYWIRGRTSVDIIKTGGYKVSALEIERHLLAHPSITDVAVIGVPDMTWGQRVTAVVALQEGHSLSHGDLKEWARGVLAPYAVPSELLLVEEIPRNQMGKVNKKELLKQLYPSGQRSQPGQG
UniProt Q3ZT31: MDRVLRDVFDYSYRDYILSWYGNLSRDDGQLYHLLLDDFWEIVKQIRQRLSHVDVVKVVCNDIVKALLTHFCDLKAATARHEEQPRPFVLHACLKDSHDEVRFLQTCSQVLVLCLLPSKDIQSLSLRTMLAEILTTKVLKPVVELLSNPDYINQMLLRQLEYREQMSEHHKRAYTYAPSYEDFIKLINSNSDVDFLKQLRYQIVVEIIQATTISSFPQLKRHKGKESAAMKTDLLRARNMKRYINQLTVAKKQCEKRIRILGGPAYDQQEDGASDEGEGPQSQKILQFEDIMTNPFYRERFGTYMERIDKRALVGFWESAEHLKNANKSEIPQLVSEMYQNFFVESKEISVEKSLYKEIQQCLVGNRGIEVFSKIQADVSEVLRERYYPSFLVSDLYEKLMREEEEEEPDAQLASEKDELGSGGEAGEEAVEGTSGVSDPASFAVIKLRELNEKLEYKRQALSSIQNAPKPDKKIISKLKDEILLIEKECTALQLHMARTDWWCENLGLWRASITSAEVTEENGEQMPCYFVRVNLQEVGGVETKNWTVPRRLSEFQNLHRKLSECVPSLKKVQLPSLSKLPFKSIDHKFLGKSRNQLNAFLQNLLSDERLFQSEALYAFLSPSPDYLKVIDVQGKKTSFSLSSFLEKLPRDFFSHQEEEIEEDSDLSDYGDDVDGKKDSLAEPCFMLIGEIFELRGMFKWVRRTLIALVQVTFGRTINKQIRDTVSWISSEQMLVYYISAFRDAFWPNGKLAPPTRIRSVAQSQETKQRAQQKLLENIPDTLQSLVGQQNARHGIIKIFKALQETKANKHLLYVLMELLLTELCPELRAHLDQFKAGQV
UniProt Q3UZZ6: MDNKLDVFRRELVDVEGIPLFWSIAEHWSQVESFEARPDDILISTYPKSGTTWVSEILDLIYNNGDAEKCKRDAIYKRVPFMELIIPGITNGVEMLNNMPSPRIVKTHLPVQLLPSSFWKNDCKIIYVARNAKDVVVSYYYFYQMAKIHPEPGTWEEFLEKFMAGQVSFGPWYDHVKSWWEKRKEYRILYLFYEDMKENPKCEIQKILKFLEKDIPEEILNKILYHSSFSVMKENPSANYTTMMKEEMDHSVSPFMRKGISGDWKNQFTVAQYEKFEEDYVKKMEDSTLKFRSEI
UniProt Q3UM29: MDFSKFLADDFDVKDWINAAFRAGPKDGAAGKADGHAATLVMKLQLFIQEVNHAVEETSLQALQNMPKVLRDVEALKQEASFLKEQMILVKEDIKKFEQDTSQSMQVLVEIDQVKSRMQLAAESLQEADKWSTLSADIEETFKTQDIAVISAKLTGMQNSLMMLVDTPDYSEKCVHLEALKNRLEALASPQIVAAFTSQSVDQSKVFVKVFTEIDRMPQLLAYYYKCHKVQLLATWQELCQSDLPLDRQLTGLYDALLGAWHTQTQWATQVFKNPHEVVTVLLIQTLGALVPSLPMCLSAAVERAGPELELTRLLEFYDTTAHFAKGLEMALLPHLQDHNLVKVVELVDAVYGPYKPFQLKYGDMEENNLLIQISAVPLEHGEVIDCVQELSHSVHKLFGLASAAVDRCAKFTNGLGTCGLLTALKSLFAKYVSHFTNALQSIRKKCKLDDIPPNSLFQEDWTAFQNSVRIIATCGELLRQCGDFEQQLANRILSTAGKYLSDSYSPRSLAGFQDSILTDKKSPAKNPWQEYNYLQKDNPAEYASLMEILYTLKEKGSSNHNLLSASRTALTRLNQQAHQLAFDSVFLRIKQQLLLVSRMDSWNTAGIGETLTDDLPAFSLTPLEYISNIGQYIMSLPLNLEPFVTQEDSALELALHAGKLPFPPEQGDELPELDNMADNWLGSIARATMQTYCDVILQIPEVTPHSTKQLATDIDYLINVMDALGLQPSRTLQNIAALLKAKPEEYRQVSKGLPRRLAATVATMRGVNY
UniProt Q3UZP4: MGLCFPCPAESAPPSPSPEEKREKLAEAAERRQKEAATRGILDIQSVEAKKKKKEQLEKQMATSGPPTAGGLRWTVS
UniProt Q4PJX1: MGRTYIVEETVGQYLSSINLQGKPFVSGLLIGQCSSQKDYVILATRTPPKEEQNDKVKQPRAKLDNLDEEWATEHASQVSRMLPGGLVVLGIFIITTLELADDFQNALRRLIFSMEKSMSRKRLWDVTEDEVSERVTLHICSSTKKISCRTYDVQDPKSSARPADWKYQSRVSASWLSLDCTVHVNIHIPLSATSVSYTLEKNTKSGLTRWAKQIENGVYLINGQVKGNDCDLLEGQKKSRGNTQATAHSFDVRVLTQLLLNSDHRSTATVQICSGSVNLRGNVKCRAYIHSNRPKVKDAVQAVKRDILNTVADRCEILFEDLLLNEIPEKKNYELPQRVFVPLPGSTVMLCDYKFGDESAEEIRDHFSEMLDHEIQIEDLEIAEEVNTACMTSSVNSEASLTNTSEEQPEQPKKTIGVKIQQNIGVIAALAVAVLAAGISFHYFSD
UniProt Q3UHF3: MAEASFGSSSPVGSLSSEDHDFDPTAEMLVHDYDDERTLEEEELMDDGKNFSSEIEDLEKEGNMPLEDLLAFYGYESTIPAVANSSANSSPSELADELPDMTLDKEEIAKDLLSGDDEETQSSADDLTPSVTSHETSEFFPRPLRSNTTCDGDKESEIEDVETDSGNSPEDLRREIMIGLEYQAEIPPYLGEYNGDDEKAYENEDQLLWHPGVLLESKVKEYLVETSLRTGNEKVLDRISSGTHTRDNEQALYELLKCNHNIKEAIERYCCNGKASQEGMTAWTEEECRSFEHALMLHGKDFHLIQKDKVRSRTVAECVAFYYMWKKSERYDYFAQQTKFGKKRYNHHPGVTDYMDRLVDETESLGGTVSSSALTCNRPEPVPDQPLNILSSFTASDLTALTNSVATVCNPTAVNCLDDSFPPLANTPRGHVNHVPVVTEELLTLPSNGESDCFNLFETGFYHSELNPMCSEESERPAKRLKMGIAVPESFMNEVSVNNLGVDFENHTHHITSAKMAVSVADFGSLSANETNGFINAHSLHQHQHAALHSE

compound: CN[C@@H]1C[C@H]2O[C@@](C)([C@@H]1OC)n1c3ccccc3c3c4c(c5c6ccccc6n2c5c31)C(=O)NC4 [staurosporine]; experiment: log2 fold change of tryptic peptide abundance, ligand vs vehicle (limited proteolysis) (log2 ratio); higher = more trypsin-susceptible (destabilized); settings: ligand concentration: 20 uM; sample: mouse liver crude lysate; replicate design: treated separately

Target	log2 fold change
UniProt Q4FK66 (peptide sequence: RYVLEEAEQLEPR, peptide start residue: 168)	0.25
UniProt Q3UMF0 (peptide sequence: SLNDLGLR, peptide start residue: 248)	-0.147
UniProt Q3UUJ4 (peptide sequence: ASHILISTDGK, peptide start residue: 198)	-0.0893
UniProt Q3UMR5 (peptide sequence: LVINDLTYHVRPPKR, peptide start residue: 150)	0.129
UniProt Q4VGL6 (peptide sequence: GADQQQPPQHSK, peptide start residue: 402)	0.515
UniProt Q4VAA2 (peptide sequence: VQAMQISEK, peptide start residue: 125)	0.119
UniProt Q3UJD6 (peptide sequence: ASHSEHHPDLGPAAEAAASQASR, peptide start residue: 1266)	-0.348
UniProt Q3U5Q7 (peptide sequence: IFDDEPTIIRR, peptide start residue: 294)	-0.413
UniProt Q3UH60 (peptide sequence: IQQLLNTLKRPK, peptide start residue: 274)	-0.441
UniProt Q3UV70 (peptide sequence: VTLGQMHGLLTER, peptide start residue: 453)	0.208
UniProt Q3V3R1 (peptide sequence: KITIGQGSTEK, peptide start residue: 585)	-0.352
UniProt Q4U2R1 (peptide sequence: MLVESGTTDKPAPPDR, peptide start residue: 2000)	-0.495
UniProt Q3UBZ5 (peptide sequence: MCYAIIQAESK, peptide start residue: 58)	0.148
UniProt Q3UQI9 (peptide sequence: SVSEDSPLGYSHTEGNSR, peptide start residue: 308)	-0.34
UniProt Q3UQA7 (peptide sequence: VELWTGIK, peptide start residue: 85)	0.164
UniProt Q3UHC7 (peptide sequence: LVLEYQAR, peptide start residue: 1073)	-0.231
UniProt Q3U3I9 (peptide sequence: FEPMELYGEHAK, peptide start residue: 42)	0.0549
UniProt Q3UW53 (peptide sequence: NDFAVESYESK, peptide start residue: 95)	-0.27

Target	log2 fold change
UniProt Q3U3E2 (peptide sequence: GQAAPCMR, peptide start residue: 235)	0.576
UniProt Q3URS9 (peptide sequence: EKRPEAAALGLFHR, peptide start residue: 43)	0.418
UniProt Q3UMY5 (peptide sequence: HKDVIVNQAK, peptide start residue: 215)	-0.682
UniProt Q4ACU6 (peptide sequence: SPTPVHSPDADRPGPLFVDVQTR, peptide start residue: 1128)	0.329
UniProt Q3URE1 (peptide sequence: VTPGFEEK, peptide start residue: 412)	-0.499
UniProt Q3ZT31 (peptide sequence: QALSSIQNAPKPDKK, peptide start residue: 460)	-0.578
UniProt Q3UFT3 (peptide sequence: LSVCVYGNNLHGNSEVNLHGCR, peptide start residue: 386)	0.47
UniProt Q3UZZ6 (peptide sequence: FMAGQVSFGPWYDHVK, peptide start residue: 162)	0.185
UniProt Q3UGP9 (peptide sequence: SLSLHNNLLTYLPR, peptide start residue: 211)	0.213
UniProt Q5DU00 (peptide sequence: SSHLSQPVVK, peptide start residue: 8)	-0.202
UniProt Q3U5C8 (peptide sequence: SLAVASK, peptide start residue: 94)	0.689
UniProt Q3UM29 (peptide sequence: GLEMALLPHLQDHNLVK, peptide start residue: 327)	-0.251
UniProt Q3UR97 (peptide sequence: QLQDFWK, peptide start residue: 104)	-0.344
UniProt Q3UZP4 (peptide sequence: GILDIQSVEAK, peptide start residue: 40)	-0.135
UniProt Q3UHC0 (peptide sequence: QPPPPPPPPHLSLHPSAGK, peptide start residue: 1214)	0.671
UniProt Q4PJX1 (peptide sequence: VLTQLLLNSDHR, peptide start residue: 255)	0.253
UniProt Q3UE37 (peptide sequence: DRLHLQGQTMQDPFGEKR, peptide start residue: 290)	-0.549
UniProt Q3UHF3 (peptide sequence: VKEYLVETSLR, peptide start residue: 219)	0.406

Some of the entries above in another layout.
Target | log2 fold change
UniProt Q3UZP4 (peptide sequence: GILDIQSVEAK, peptide start residue: 40) | -0.135
UniProt Q3UHC0 (peptide sequence: QPPPPPPPPHLSLHPSAGK, peptide start residue: 1214) | 0.671
